Experimental data: EP4696714A1, “PREPARATION METHOD FOR NANOBODY TARGETING TISSUE FACTOR AND CONJUGATE AND USE THEREOF” (Fudan University, priority 2023, dated 2024)
These are yes or no findings as the source states them, for the method shown. A result given as binding can be weak or reduced; the word gives no strength.

Target: cynomolgus monkey TF-ECD (extracellular domain fragment of TF protein) (cynomolgus monkey)
Test: ELISA, cynomolgus monkey TF-ECD coated

binding: binds
B1: original nanobody 4A02 (parental antibody 4A02, as comparator in Examples 11 and 12) (Fc fusion)
VHH: QVQLVESGGGLVQPGGSLSLSCTASETISSTYIMGWHRRSPGKERELVAVISGDGVTHYADFVKGRFVISRDNAKNAVYLKMNFLTPEDTAVYYCYAAGRWNHWGQGTQVTVSS
notes: not shown: Fc segment of the comparator
